In assay [1] the target is T1, S. cerevisiae ODC (Saccharomyces cerevisiae, UniProt P08432). The note with it: CO2 Assay; 50 nM enzyme; errors in parentheses.
Assay [2] deals with T1, S. cerevisiae ODC. As to the kind of experiment: biochemical.

Chains of the proteins cited; added tags and fusions are not shown. Lines headed by an entry give the natural chain unless they say otherwise; changes in a name come on top.
UniProt P08432: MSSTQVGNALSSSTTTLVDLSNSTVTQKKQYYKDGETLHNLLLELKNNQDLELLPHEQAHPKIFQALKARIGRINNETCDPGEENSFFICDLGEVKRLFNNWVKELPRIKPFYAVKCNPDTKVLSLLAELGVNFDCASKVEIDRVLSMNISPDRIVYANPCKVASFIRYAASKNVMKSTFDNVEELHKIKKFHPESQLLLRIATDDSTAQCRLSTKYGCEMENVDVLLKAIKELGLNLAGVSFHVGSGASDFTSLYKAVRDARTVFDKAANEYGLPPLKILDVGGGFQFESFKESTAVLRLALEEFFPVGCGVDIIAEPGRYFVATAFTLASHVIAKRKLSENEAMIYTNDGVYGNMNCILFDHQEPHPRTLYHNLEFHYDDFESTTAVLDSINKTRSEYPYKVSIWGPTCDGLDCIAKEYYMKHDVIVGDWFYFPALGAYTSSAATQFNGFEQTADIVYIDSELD

Broadly, the Km is the concentration of substrate that gives half-maximal velocity. In the case of `NCCC[C@H](N)C(=O)O` [L-ornithine], on S. cerevisiae ODC [1], the Km is 122 µM and the kcat is recorded as 3.3 (0.2) s^−1.

Usually Ki stands for the equilibrium dissociation constant of an inhibitor or competing ligand from its target. Higher therefore signals lower affinity. For the compound `NCCC[C@@H](N)C(=O)O` [D-ornithine], the Ki on S. cerevisiae ODC [2] came out at 380 ± 67 µM.

The values are drawn from publication PMC3124589 (Biochimica et biophysica acta, 2011).
